PubChem BioAssay AID504793, Drosophila RNAi Screening Center – 2011
Test: 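Whole-genome screen for parts of the DNA damage checkpoint at G2/M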 (primary screen). System: Drosophila S2R+ cells. Knock-down reagent: long dsRNA against Drosophila genes, about 0.25 µg dsRNA per well. Timing: 4 days of dsRNA, then 4 hours of drug before read-out. Challenge: doxorubicin 0.5 µM for 4 hours to cause double-strand breaks, in cells also given a low, harmless dose of dsRNA against nbs to sensitise the assay. Measured: 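Mitotic index as the number of phospho-histone H3-positive cells in each well following doxorubicin, given as raw counts without normalisation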. Reading the numbers: mitotic cells: higher = more cells in mitosis, weaker G2 arrest. Rule for the call: 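a call needs confirmation in secondary tests, with other dsRNAs and a check of mitotic timing without damage, not just a high primary count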. Calls: active = confirmed in follow-up tests; inactive = not confirmed.
In all, the deposit lists about 23,000 reagents; below is an unselected part of those with a known target gene and a result. Of all reagents, 62 (0.27%) are marked active. 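Calls come from follow-up tests whose scores are not deposited, so confirmed genes may have low counts here; counts are not normalised per plate.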 The raw values are shown without normalisation.

For beat-Vc [DRSC12927], what does the deposit list?
mitotic cells, replicate 1: 3; activity call: inactive

With beat-Vc [DRSC14849], what does the deposit list?
mitotic cells, replicate 1: 8; activity call: inactive

What is on record for Cchl [DRSC15949]?
activity call: inactive

What did the screen give for CG9896 [DRSC03962]?
mitotic cells, replicate 1: 5; activity call: inactive

For CG9896 [DRSC04594], what does the deposit list?
mitotic cells, replicate 1: 4; activity call: inactive

For nwk [DRSC10442], how do the results read?
mitotic cells, replicate 1: 9; activity call: inactive

Which result is listed for Sumo [DRSC03611]?
mitotic cells, replicate 1: 16; activity call: inactive

For Dnai2 [DRSC10575], what was measured?
mitotic cells, replicate 1: 4; activity call: inactive

Which result is listed for yata [DRSC15408]?
mitotic cells, replicate 1: 8; activity call: inactive

For RhoGAP18B [DRSC19763], what does the deposit list?
mitotic cells, replicate 1: 15; activity call: inactive

For RhoGAP18B [DRSC20047], what does the deposit list?
mitotic cells, replicate 1: 4; activity call: inactive

For RhoGAP18B [DRSC20048], how do the results read?
mitotic cells, replicate 1: 3; activity call: inactive

What is on record for RhoGAP18B [DRSC20049]?
mitotic cells, replicate 1: 6; activity call: inactive

With RhoGAP18B [DRSC25093], what was measured?
mitotic cells, replicate 1: 10; activity call: inactive

What is on record for CG15172 [DRSC02473]?
mitotic cells, replicate 1: 2; activity call: inactive

With CG15172 [DRSC27372], what does the deposit list?
mitotic cells, replicate 1: 6; activity call: inactive

With CG12010 [DRSC08218], what was measured?
mitotic cells, replicate 1: 4; activity call: inactive

For iav [DRSC18363], what was measured?
mitotic cells, replicate 1: 12; activity call: inactive

What is on record for iav [DRSC25119]?
mitotic cells, replicate 1: 4; activity call: inactive

What did the screen give for mmd [DRSC19673]?
mitotic cells, replicate 1: 9; activity call: inactive

Which result is listed for mmd [DRSC20161]?
mitotic cells, replicate 1: 13; activity call: inactive

For mmd [DRSC23042], how do the results read?
mitotic cells, replicate 1: 13; activity call: inactive

How did the screen score CG14683 [DRSC17035]?
mitotic cells, replicate 1: 5; activity call: inactive

2 entries already listed, sorted by “mitotic cells, replicate 1”, ascending.
CG15172 [DRSC02473] | mitotic cells, replicate 1 = 2; activity call = inactive
RhoGAP18B [DRSC25093] | mitotic cells, replicate 1 = 10; activity call = inactive
